Results on one substance are retold here after paper PMC6052479.

Residue numbers refer to the chain shown, from its start. No constants are given. Whether binding was seen depends on the method and setting. Binding seen in cells or lysates may run through a third protein. For some of these results: Binding can be weak; no strength is given. Tags and fused reporters may be left off the sequences shown.

Assay [1] has as its target T1, HA-STN1 (UniProt Q9H668).
T1 sequence: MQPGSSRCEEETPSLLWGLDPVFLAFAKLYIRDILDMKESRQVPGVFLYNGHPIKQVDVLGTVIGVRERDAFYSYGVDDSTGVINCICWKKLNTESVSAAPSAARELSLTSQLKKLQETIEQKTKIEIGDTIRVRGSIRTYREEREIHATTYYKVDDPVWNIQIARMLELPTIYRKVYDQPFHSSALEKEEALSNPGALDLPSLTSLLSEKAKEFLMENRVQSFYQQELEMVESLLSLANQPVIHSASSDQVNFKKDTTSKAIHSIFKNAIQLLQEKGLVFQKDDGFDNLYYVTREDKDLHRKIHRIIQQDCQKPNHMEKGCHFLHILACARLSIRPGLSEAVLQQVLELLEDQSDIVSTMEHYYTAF
The experiment in a line: co-IP; Flag-CTC1 (WT or L1142H), HA-STN1 and Myc-TEN1 co-expressed in HEK293T cells; crude lysates, TEB150 buffer, overnight 4°C; blot for endogenous DNA Pol-α (Figures 7a, 7b).

Assay [2] concerns the target T1, HA-STN1. The experiment in a line: co-IP; Flag-CTC1, HA-STN1 or Myc-TEN1 each expressed by itself in HEK293T cells; crude lysates, TEB150 buffer, overnight 4°C; blot for endogenous DNA Pol-α (Figure 7a).
The target of a further assay is T2, Flag-CTC1^A227V (human) (UniProt Q2NKJ3).
T2 sequence: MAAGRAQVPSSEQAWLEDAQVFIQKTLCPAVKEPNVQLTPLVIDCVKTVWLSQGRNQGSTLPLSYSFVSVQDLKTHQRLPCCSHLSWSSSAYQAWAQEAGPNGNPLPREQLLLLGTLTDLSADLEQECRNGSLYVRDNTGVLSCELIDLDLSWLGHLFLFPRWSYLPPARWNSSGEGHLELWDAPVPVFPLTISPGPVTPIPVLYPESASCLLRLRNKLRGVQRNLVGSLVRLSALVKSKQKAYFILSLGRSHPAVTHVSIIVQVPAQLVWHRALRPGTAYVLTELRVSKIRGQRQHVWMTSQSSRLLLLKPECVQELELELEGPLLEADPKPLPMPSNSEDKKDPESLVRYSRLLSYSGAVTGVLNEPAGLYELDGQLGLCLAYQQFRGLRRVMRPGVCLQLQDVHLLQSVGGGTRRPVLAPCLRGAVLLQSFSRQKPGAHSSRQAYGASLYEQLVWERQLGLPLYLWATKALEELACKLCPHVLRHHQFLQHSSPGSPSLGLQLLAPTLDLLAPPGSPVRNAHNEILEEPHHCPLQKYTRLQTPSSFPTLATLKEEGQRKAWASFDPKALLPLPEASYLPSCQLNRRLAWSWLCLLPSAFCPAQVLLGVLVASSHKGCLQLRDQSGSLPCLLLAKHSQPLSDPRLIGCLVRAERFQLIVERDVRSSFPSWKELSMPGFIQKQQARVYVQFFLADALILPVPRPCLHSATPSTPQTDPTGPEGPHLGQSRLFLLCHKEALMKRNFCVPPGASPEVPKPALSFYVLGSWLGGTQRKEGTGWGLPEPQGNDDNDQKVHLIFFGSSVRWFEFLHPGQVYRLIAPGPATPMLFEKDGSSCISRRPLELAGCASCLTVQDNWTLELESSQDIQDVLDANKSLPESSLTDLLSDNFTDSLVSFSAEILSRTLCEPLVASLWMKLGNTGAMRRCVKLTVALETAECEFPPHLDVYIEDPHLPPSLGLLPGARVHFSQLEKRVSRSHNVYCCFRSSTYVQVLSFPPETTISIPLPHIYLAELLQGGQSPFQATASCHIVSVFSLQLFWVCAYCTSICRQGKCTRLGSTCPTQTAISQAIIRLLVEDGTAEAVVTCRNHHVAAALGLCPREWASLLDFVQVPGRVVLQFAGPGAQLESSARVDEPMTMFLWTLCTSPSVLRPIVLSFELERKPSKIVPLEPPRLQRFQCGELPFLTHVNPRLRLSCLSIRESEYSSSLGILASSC
Kind of assay: co-IP; Flag-CTC1 (WT or mutant) together with HA-STN1, no Myc-TEN1; antibody cross-linked sepharose beads incubated with crude cell lysates in TEB150 buffer (50 mM Hepes pH 7.3, 150 mM NaCl, 2 mM MgCl2, 5 mM EGTA, 0.5% Triton X-100, 10% glycerol) overnight at 4°C; immunoblot; endogenous DNA Pol-α (Figures 1f, 5a, 6a, 7a, 7b). (Immunoblotting shows a protein as a band on a membrane.)

Assay [3] has as its target T3, Flag-CTC1^(A227V; V259M) double mutant (human) (UniProt Q2NKJ3).
T3 sequence: T2 sequence with V259M
The description is as above.

Assay [4] has as its target T1, HA-STN1. Described as above.
Another assay deals with T4, Flag-CTC1^V259M (human) (UniProt Q2NKJ3).
T4 sequence: T2 sequence with V227A, V259M
Described as above.

Assay [5] addresses T1, HA-STN1. Kind of assay: co-IP; HA-STN1 and Myc-TEN1 co-expressed (S:T) in HEK293T cells, no Flag-CTC1; crude lysates, TEB150 buffer, overnight 4°C; blot for endogenous DNA Pol-α (Figure 7a).

With “endogenous DNA Pol-α (human (endogenous in HEK293T)) (enzyme)”, the binding entry is recorded as “binds” in the assay with HA-STN1 [1]; “binds weakly” with HA-STN1 [2]; “no binding” with Flag-CTC1^A227V (human); “no binding” in assay [3]; “binds” with HA-STN1 [4]; “no binding” with Flag-CTC1^V259M (human). Further, the binding entry with HA-STN1 [5] is “binds”.
